Target: human serum albumin (HSA) (Homo sapiens) (UniProt P02768)
Experiment: ELONA
Conditions: purified recombinant protein, label: biotin, single-stranded DNA
[1] = Nap-dU at all positions marked 6 (n)

Sequence	binding result (Nap-dU at all positions marked 6 (n) [n positions 17,19,20,25,31,32,39,41,44,45,53 = modified dU])	binding result [1]
GAGTGACCGTCTGCCTTCTTGAACTAGAACTTAACCGCTATGGTTACAGCGGTACAGCCACACCACCAGCC [Clone 10]	binds	
GAGTGACCGTCTGCCTACTAAATGTCTGTCAAATACTATACGGTCTCGTATCATGACAGCCACACCACCAGCC [Clone 9]		binds
GAGTGACCGTCTGCCTTAGTGGGATGATCTTGCCATAGAACTTAACCGGATGGTCACAGCCACACCACCAGCC [Clone 8]		binds

— US20240327848
